# PubChem BioAssay (NCATS)
# This is one part of the list. Further columns of the screen follow, without active or inactive calls. For some of these results: The list favours compounds with an active or inconclusive main result. For some of these results: The note in brackets gives the kind of curve behind each potency; many fits are weak.
# How the values were obtained:
# [1] = qHTS assay for small molecule antagonists of retinoid X receptor alpha signaling (AID 588546); details: HEK293T RXRa-UAS-bla, beta-lactamase ratio, antagonist mode; measured here: W530 green channel, cytotoxicity proxy;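 also: cells stimulated with 9-cis-retinoic acid as agonist; % is scaled to controls: 0 for no effect and ±100 for the full control effect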
# Summary of the method: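 Beta-lactamase reporter inhibition, read as CCF4 fluorescence ratio (ex 405, em 460/530 nm) after 2 h at RT. HEK293T UAS-bla cells, 2500/well, were stimulated with 9-cis-RA at 500 or 100 nM final alongside test compound for 18 h at 37 C.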
# [2] = qHTS drug screen for cell cycle checkpoint inhibitors in PARPi-resistant BRCA-mutant ovarian cancer cell lines. (AID 1963452); details: PEO1/OlaR viability, CellTiter-Glo luminescence, 96 h
# Summary of the method: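 PEO1, PEO4 and PEO1/OlaR ovarian cancer cells, 600 per well, exposed 96 h at 37C to a dilution series. Viability read by CellTiter-Glo luminescence, normalized to DMSO and empty wells; activity summarized as Z-AUC.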
# [3] = qHTS for identification of novel therapeutic agents for treatment of microphthalmiaassociated transcription factor (MiT) renal cell carcinoma (RCC) (AID 1963991); details: CellTiter-Glo, 48 h; for z-score: stronger effect = lower value
# Summary of the method: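 Three TFE3-fusion RCC cell lines (UOK109, UOK124, UOK145), 500 cells/well, were exposed to the 1912-compound MIPE 4.0 library for 48 hours at 37 C. Viability was read by CellTiter-Glo luminescence, normalised to DMSO (100%) and empty wells (0%), with 11-concentration curve fits.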
# [4] = S16 Schwann cell PMP22 intronic element beta-lactamase assay (AID 624044); details: S16 rat Schwann cells, PMP22 element beta-lactamase FRET, 24 h
# Summary of the method: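 Beta-lactamase reporter under a PMP22 intronic regulatory element in stable S16 rat Schwann cells; 24 h compound exposure. 460 nm blue signal normalized between DMSO (0%) and potassium clavulanate, with 535 nm FRET tracking viability; curves classed by r2 and response.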
# [5] = Nrf2 qHTS screen for inhibitors: Validation (AID 493153); details: A549 ARE-Fluc reporter, 18-24 h; AC50: CellTiter-Fluor fluorescence read, measured here: cytotoxicity CellTiter-Fluor AC50; viability change: measured here: cytotoxicity max response
# Summary of the method: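 Concentration-response test in A549 ARE_Fluc reporter cells (5% FBS OPTI-MEM), compound exposure 18-24 h at 37°C, 5% CO2. Cell viability measured first by CellTiter-Fluor fluorescence; ARE-driven luciferase luminescence then measured as Nrf2 activity.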
# [6] = measured here: PEO1 parental viability
# [7] = TFE3-RCC UOK109 viability, measured here: UOK109 Z-AUC
# [8] = TFE3-RCC viability, measured here: UOK124 Z-AUC
# [9] = TFE3-RCC viability, measured here: UOK145 Z-AUC
# [10] = TFE3-RCC viability, measured here: UOK145 cell viability
# [11] = TFE3-RCC viability, measured here: UOK124 cell viability
# [12] = measured here: 530 nm viability channel
compound,measurement,setting,value
S=P(N1CC1)(N1CC1)N1CC1,max response,[1],-6.1%
same,AC50,[2]; [6],"27.5 µM [falling, single point]"
same,z-score,[3]; [7],0.68
same,z-score,[3]; [8],0.928
same,z-score,[3]; [9],0.216
same,AC50,[3]; [10],"18.7 µM [falling, partial curve, poor fit]"
CN(C)CCOc1cc(-c2cn[nH]c2)ccc1NC(=O)C1COc2ccccc2O1 (configuration not stated),AC50,[2]; measured here: PEO4 viability,"2.19 µM [falling, partial curve, poor fit]"
same,z-score,[3]; [7],0.61
same,z-score,[3]; [8],0.0908
same,AC50,[3]; [11],"18.7 µM [falling, partial curve]"
same,z-score,[3]; [9],0.824
same,AC50,[3]; [10],"33.2 µM [falling, single point]"
CC(C)N1[N]C(=C2C=c3cc(O)ccc3=N2)c2c(N)ncnc21,AC50,[3]; [11],"6.62 µM [falling, partial curve]"
same,AC50,[3]; [10],"3.72 µM [falling, partial curve]"
C=CCNC1=C2C[C@@H](C)C[C@H](OC)[C@H](O)[C@@H](C)/C=C(\C)[C@H](OC(N)=O)[C@@H](OC)/C=C\C=C(/C)C(=O)NC(=CC1=O)C2=O,AC50,[4]; [12],"0.251 µM [rising, full curve]"
same,AC50,[2]; measured here: PEO4 viability,"15.5 µM [falling, single point]"
Nc1ccn([C@@H]2O[C@H](CO)[C@@H](O)C2O)c(=O)n1 (some centres not stated),viability change,[5],4.82%
same,AC50,[4]; measured here: 460 nm blue channel,"3.55 µM [falling, full curve, poor fit]"
same,AC50,[4]; [12],"2.82 µM [falling, full curve, poor fit]"
same,AC50,[2]; [6],"0.11 µM [falling, full curve]"
Cc1ccc(NC(=O)C2(c3ccc4c(c3)OC(F)(F)O4)CC2)nc1-c1cccc(C(=O)O)c1,AC50,[3]; [11],"0.118 µM [falling, full curve]"
same,AC50,[3]; [10],"0.105 µM [falling, full curve]"

# 2 entries picked at random from those above, as already listed:
compound,measurement,setting,value
CN(C)CCOc1cc(-c2cn[nH]c2)ccc1NC(=O)C1COc2ccccc2O1 (configuration not stated),z-score,[3]; [9],0.824
S=P(N1CC1)(N1CC1)N1CC1,AC50,[3]; [10],"18.7 µM [falling, partial curve, poor fit]"
